# Some of the results follow.
# The chains behind the UniProt entries cited, without tags or fusion partners.
# UniProt Q0JBA9, entry or part of it: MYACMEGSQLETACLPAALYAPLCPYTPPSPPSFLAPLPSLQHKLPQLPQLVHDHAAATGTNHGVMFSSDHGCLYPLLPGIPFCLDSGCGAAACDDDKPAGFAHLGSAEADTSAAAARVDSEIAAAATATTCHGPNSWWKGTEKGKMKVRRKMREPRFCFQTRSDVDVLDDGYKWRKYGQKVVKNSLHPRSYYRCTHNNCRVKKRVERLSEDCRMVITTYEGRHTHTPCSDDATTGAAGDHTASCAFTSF
# Target: OsWRKY34 (Oryza sativa, UniProt Q0JBA9 1-250)
# Assay: protein-binding microarray (RPBM); PBS, 2% BSA, 51.3 ng/ul salmon testes DNA, 50 uM zinc acetate, 200 nM TF, 25 C, 1 h; high values mean tight binding
# Settings: protein: recombinant; tags: N-terminal polyhistidine and DsRed monomer fusion (pET32a); label: CyDye5-dUTP incorporated in the synthesized complementary strand; 3' TTTTT single-stranded linker to array surface; dsDNA, one strand shown
# Summary of the method: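 A custom Agilent array was converted to double-stranded form by primer extension with Cy5-dUTP and blocked with 2% BSA. Protein at 200 nM in PBS with 2% BSA, salmon testes DNA and 50 µM zinc acetate was applied for 1 h at 25 °C, followed by washing. The proteins were polyhistidine–DsRed N-terminal fusions of transcription factors, expressed in E. coli BL21-CodonPlus and Ni–NTA-purified. The binding signal is per-feature fluorescence intensity (arbitrary units) from an Axon 4000B scanner.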
row,Sequence,binding signal
1,GGTCGACCGCCGCGCCGTCGCCGCCGCCATTCCGCCCACGCGGAGTCACCTAGTGCAG,9560 fluorescence intensity (a.u.)
2,CGCCGCCTGCCCCTGCGCCTGCAGCCTCTGCGCCTCCTGCCGGAGTCACCTAGTGCAG,9380 fluorescence intensity (a.u.)
3,CTTTTGATCATTTCCCACTCGTTTATTGTATTTGGAGTAACGGAGTCACCTAGTGCAG,8300 fluorescence intensity (a.u.)
4,GTCGTCTCATTGGTCAACACCACTTAGGATCCCCACGAGCCGGAGTCACCTAGTGCAG,8550 fluorescence intensity (a.u.)
5,TTGGTATGTTATATACCTATTTTTATTGTGGTAACTTGACCGGAGTCACCTAGTGCAG,8740 fluorescence intensity (a.u.)
6,ATCGCTGGCTTATCATACTCTATTATACCTGCTCTAAGGACGGAGTCACCTAGTGCAG,10000 fluorescence intensity (a.u.)
7,GCCGCGGGACGTCACGCACGCCGACGCACGCTCCCGGCGCCGGAGTCACCTAGTGCAG,8090 fluorescence intensity (a.u.)
8,AACAGGGAATGCTTTATATTTGTACTTTTGGTCCTGTTAACGGAGTCACCTAGTGCAG,8810 fluorescence intensity (a.u.)
9,ATTAACTCTACTTTTTCATCATCCACCCACCCACAAGGACCGGAGTCACCTAGTGCAG,8820 fluorescence intensity (a.u.)
10,TCCTGTCCCTCGTGTTTGTGTCACGTTCGATTCTCCCAAGCGGAGTCACCTAGTGCAG,9280 fluorescence intensity (a.u.)
11,TCCATCTCCTAGCTTTCCTTCCCTTTCTCTCGCTGCTGCTCGGAGTCACCTAGTGCAG,10500 fluorescence intensity (a.u.)
12,AATAGTACGCCCTGTGCATGCCATTCCTTTCGAGTAGTCACGGAGTCACCTAGTGCAG,9450 fluorescence intensity (a.u.)
13,GGTTTTTATCTTTTCTTTTTTTCTTTTTAATTCGGAACCGCGGAGTCACCTAGTGCAG,10100 fluorescence intensity (a.u.)
14,CGAGCACCTTCACTTGCCCGGCCGGCACCAACTACCAGGTCGGAGTCACCTAGTGCAG,9810 fluorescence intensity (a.u.)
15,GGTCACCCAAAACAACGTGTTTAATTACTTCCTTTTCTTTCGGAGTCACCTAGTGCAG,8040 fluorescence intensity (a.u.)
16,ACCATCTCTATTCTTCTTCTGCACCACCATCGCCAGCAGCCGGAGTCACCTAGTGCAG,11500 fluorescence intensity (a.u.)
17,GACTTTTTAGCACATGTTTAACCGTTCGTCTTATTCAAAACGGAGTCACCTAGTGCAG,12100 fluorescence intensity (a.u.)
18,CGTCGGAGCCAACATTATTTTTCTGTTTCCTGTCACCGTCCGGAGTCACCTAGTGCAG,8980 fluorescence intensity (a.u.)
19,TCTCATCTTAGCTTGTCCATTGTCCATATACACTCCTTGCCGGAGTCACCTAGTGCAG,8240 fluorescence intensity (a.u.)
20,TTTTGCGCTCTGCTTTGCTAGCTCGCTTTCTCCGGTGACCCGGAGTCACCTAGTGCAG,8920 fluorescence intensity (a.u.)
21,CCCTTTTTTTGATTTTTAACGCCTTTTCTAAATTATTTTTCGGAGTCACCTAGTGCAG,8390 fluorescence intensity (a.u.)

# Two records drawn at random from the list so far:
row,Sequence,binding signal
4,GTCGTCTCATTGGTCAACACCACTTAGGATCCCCACGAGCCGGAGTCACCTAGTGCAG,8550 fluorescence intensity (a.u.)
12,AATAGTACGCCCTGTGCATGCCATTCCTTTCGAGTAGTCACGGAGTCACCTAGTGCAG,9450 fluorescence intensity (a.u.)

# Going on with the list:

row,Sequence,binding signal
1,ATTCCTATCAAAATCCTACGTTTTTTCTAATCCTACGTTTCGGAGTCACCTAGTGCAG,9530 fluorescence intensity (a.u.)
2,TACATATACGTATCTCTCACCCTTGCACTGCGCCGGTACACGGAGTCACCTAGTGCAG,9080 fluorescence intensity (a.u.)
3,TTCATTGCTTCATTGCTCCATAGGAATGTTGGTATTCATTCGGAGTCACCTAGTGCAG,8500 fluorescence intensity (a.u.)
4,GATCTATGTTGCTGTTTTTGCATTGTCATTCGTTTGCTCTCGGAGTCACCTAGTGCAG,12000 fluorescence intensity (a.u.)
5,TTTTTCGCCCTTTACAGTCTTCGTCTTCGCTACTCGGCAGCGGAGTCACCTAGTGCAG,9690 fluorescence intensity (a.u.)
6,AGTTGGCTTGCATTTTTTTCTTCGTGTGATAGTGTATTAACGGAGTCACCTAGTGCAG,8990 fluorescence intensity (a.u.)
7,TACATCATGCGTCGCTGCGTCACCATGCTCGTCTGCTGGCCGGAGTCACCTAGTGCAG,8220 fluorescence intensity (a.u.)
8,CTCGCGTTGAATTTGGCTAACTTAGTGTAATAATCGCGCACGGAGTCACCTAGTGCAG,8240 fluorescence intensity (a.u.)
9,AACATGTGTTTTTAGTTAGTTTGTTAATGGAGGTTTTGTTCGGAGTCACCTAGTGCAG,8790 fluorescence intensity (a.u.)
10,TCTCCTCCTAGCTTCACTCTCTCCGCTGCTGCTGCTGCGTCGGAGTCACCTAGTGCAG,9800 fluorescence intensity (a.u.)
11,ATAACTACCTGCACAATTAACCATGCCCGTTTTGTTCTGCCGGAGTCACCTAGTGCAG,8480 fluorescence intensity (a.u.)
12,ATAGCTTCTGGTTTCCGAATATATCTTCTTTTCAAACAGTCGGAGTCACCTAGTGCAG,10800 fluorescence intensity (a.u.)
13,TGCCACCTCGCCGCTAGCTCGCTCTCGCGGTCTCGCCCTCCGGAGTCACCTAGTGCAG,8160 fluorescence intensity (a.u.)
14,TTTTTCTTTCCCCTGTACTGTAGGAGTACTATTTACACAACGGAGTCACCTAGTGCAG,8440 fluorescence intensity (a.u.)
15,TTCTTTCACGCGCGCTCGCCACCGCCCTCCTTGCTCGTCCCGGAGTCACCTAGTGCAG,14100 fluorescence intensity (a.u.)
16,TCTTCTCCCAAGTTGACTCCCGATCCATCACTGGCAATGCCGGAGTCACCTAGTGCAG,8410 fluorescence intensity (a.u.)
17,TTTTTTCCTAAGGCATACATAATTTTAGCTCTTTTTCTTGCGGAGTCACCTAGTGCAG,8590 fluorescence intensity (a.u.)
18,GGATTGGGGCACTTGTTGATGGTATTTCTTAGATTTTCTCCGGAGTCACCTAGTGCAG,12700 fluorescence intensity (a.u.)
19,CCCAGCCAGTTCTTCCTCTGTTTTTTCCCCAGCCGCCCGCCGGAGTCACCTAGTGCAG,8920 fluorescence intensity (a.u.)
20,AGACGTTGACCACATTTCTGGCTGAAAATCCAGTGTTCTTCGGAGTCACCTAGTGCAG,8910 fluorescence intensity (a.u.)
21,TCCACTCCACTCCGCATTTCCACTGCATGGGTCCATTTACCGGAGTCACCTAGTGCAG,12600 fluorescence intensity (a.u.)

# — publication PMC7819943, “Rice protein-binding microarrays: a tool to detect cis-acting elements near promoter regions in rice”
